Data taken from the supplement of paper PMC6411743.
± gives the standard deviation of the averaged measurements. Only a part is listed here, and it is no random draw.

By UniProt entry, the sequences of proteins in these tests, tags left out. Where a name states a change or a piece, a line headed by the entry shows the natural chain unless it says otherwise.
UniProt Q9GZS1, whole entry: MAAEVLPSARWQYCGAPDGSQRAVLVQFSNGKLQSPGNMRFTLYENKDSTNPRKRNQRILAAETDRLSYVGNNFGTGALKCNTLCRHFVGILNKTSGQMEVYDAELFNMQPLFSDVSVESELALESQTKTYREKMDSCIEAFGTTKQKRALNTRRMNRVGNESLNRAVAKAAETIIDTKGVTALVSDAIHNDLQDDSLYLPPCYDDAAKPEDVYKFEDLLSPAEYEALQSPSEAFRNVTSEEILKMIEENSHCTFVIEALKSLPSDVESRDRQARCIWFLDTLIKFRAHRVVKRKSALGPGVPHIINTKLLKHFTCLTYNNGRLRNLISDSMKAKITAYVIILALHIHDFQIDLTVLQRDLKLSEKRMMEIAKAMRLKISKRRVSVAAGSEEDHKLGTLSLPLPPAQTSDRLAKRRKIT
UniProt Q9GZP4: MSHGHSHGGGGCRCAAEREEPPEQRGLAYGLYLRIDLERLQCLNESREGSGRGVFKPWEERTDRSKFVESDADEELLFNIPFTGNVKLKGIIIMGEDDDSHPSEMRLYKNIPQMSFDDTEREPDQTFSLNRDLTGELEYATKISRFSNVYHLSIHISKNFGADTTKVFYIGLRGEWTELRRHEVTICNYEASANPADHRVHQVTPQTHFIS
UniProt Q9HCM4: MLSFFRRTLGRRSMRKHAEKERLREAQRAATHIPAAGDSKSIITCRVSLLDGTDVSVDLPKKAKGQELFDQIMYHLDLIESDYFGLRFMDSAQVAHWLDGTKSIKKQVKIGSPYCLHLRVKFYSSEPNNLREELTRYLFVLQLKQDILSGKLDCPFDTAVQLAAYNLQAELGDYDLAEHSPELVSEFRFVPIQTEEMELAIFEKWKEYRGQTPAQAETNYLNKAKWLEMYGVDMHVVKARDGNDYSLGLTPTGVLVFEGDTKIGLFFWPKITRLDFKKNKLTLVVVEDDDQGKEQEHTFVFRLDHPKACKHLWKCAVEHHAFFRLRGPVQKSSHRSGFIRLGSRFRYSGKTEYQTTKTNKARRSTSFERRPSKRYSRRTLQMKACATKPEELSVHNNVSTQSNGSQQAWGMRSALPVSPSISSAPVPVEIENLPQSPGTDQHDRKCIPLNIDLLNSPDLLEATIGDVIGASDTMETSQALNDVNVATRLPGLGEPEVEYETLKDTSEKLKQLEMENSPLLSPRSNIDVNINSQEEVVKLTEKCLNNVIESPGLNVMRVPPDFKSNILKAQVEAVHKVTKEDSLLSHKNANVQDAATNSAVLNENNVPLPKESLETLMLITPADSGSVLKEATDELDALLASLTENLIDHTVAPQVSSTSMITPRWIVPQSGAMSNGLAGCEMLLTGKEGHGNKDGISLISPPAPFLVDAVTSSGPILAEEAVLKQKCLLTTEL
UniProt Q9H307: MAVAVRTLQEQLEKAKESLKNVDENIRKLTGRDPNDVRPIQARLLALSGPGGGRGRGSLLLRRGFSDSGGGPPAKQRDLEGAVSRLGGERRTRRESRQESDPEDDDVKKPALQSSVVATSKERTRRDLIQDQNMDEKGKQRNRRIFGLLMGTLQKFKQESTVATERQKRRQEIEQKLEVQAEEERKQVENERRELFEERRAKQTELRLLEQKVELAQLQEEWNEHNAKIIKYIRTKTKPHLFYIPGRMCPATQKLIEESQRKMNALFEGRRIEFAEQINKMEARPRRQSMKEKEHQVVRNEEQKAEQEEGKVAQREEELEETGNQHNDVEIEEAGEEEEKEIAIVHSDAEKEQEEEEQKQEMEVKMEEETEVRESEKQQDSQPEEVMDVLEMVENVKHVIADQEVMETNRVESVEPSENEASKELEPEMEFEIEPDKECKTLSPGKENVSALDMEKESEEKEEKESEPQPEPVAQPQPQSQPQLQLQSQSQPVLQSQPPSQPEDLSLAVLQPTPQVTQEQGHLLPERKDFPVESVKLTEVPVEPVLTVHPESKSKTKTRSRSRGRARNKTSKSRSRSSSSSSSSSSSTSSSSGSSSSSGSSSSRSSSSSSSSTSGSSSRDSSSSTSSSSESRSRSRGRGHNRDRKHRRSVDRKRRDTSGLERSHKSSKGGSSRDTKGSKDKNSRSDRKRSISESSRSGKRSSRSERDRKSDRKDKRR
UniProt Q9H1Z4: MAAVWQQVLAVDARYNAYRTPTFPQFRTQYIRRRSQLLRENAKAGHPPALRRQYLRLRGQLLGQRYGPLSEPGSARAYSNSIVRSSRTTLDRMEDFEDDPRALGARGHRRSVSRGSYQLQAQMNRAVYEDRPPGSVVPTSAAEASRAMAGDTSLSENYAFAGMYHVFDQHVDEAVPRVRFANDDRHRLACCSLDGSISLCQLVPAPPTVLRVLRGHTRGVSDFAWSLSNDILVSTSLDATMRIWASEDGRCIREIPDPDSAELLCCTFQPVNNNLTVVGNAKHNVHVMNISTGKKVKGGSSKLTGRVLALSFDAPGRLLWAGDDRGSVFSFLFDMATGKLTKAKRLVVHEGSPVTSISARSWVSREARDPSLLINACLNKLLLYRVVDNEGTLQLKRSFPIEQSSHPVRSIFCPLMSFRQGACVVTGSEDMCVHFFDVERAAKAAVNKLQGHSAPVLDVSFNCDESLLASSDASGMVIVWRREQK
UniProt Q9GZM8: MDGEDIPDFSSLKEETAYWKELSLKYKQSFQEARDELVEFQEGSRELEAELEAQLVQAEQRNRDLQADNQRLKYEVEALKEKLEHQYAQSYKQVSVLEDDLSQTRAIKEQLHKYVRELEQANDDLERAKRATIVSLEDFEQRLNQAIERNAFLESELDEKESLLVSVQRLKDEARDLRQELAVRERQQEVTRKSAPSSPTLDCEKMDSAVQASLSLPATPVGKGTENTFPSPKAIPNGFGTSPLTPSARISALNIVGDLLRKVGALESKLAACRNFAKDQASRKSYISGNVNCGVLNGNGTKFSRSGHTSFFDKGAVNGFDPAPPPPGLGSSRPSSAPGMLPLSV
UniProt Q9HBH5: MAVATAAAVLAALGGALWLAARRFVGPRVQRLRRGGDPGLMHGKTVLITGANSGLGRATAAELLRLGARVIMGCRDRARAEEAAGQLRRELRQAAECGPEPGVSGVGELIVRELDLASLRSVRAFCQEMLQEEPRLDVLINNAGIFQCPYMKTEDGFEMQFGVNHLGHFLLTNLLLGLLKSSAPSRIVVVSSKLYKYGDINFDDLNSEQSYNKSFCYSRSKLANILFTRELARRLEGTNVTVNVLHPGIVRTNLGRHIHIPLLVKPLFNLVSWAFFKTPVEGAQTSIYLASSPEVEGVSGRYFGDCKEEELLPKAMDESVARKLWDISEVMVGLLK
UniProt Q9H0X9: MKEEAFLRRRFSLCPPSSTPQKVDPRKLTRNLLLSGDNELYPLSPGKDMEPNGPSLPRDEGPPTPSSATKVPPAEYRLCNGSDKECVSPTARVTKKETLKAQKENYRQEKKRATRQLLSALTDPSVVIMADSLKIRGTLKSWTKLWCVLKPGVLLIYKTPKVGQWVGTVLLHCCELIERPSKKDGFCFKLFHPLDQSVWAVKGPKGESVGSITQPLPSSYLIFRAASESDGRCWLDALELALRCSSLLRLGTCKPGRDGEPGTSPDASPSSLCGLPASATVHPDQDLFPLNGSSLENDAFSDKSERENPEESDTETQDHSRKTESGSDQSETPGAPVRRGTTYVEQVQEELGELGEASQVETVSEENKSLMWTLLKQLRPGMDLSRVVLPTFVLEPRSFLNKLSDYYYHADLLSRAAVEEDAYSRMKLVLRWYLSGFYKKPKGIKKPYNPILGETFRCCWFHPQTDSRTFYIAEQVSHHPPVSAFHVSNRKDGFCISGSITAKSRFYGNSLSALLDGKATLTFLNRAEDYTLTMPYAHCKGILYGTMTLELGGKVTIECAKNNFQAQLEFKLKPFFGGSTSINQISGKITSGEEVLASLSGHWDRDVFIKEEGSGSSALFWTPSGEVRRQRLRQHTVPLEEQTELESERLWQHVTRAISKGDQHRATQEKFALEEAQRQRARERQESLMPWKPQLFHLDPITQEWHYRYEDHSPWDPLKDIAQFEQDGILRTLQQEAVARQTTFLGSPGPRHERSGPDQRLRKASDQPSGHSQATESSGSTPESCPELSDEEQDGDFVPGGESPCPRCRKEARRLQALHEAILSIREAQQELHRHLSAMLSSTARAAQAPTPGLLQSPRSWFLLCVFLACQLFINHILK
UniProt Q9NPD8: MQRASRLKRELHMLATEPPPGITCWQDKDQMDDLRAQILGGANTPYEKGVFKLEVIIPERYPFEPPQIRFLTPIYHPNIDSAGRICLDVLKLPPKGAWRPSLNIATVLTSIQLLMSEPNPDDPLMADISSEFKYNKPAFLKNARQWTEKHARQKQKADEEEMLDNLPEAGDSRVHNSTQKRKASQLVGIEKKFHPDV
UniProt Q9H7C9: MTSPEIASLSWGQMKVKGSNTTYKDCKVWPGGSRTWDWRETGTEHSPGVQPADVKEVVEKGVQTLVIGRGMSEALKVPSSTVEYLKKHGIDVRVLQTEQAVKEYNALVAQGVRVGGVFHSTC
UniProt Q9BZV1: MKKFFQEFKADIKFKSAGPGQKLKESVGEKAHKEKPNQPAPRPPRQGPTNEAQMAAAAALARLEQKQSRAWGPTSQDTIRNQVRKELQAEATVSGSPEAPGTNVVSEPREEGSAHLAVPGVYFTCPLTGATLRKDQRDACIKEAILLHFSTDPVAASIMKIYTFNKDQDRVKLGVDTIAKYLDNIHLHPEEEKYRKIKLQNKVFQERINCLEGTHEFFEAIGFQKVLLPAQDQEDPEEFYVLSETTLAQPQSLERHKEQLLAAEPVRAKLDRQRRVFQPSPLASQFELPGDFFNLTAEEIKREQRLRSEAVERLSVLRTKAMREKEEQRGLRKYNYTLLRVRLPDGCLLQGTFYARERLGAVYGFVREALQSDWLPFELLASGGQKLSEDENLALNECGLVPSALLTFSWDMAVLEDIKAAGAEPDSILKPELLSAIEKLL
UniProt Q9H1K0: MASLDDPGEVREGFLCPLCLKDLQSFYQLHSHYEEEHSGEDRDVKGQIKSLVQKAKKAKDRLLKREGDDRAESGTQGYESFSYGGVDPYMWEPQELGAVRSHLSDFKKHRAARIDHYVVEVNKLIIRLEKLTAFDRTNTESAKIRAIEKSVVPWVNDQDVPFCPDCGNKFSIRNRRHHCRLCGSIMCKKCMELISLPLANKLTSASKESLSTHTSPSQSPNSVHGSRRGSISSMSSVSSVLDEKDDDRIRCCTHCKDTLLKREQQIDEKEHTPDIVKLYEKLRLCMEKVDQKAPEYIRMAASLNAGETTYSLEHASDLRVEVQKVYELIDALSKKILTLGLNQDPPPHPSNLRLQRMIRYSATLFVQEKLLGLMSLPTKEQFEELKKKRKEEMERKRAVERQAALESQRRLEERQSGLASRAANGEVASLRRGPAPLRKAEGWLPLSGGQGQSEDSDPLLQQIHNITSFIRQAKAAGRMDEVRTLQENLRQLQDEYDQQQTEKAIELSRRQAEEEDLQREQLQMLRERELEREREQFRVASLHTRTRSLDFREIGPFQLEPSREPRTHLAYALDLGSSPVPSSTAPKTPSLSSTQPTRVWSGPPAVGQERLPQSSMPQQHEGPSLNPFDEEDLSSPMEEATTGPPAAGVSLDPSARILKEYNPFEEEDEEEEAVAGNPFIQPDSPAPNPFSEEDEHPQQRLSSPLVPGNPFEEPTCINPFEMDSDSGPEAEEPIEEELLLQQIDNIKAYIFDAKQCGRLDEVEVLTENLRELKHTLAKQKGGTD
UniProt Q9H0U9: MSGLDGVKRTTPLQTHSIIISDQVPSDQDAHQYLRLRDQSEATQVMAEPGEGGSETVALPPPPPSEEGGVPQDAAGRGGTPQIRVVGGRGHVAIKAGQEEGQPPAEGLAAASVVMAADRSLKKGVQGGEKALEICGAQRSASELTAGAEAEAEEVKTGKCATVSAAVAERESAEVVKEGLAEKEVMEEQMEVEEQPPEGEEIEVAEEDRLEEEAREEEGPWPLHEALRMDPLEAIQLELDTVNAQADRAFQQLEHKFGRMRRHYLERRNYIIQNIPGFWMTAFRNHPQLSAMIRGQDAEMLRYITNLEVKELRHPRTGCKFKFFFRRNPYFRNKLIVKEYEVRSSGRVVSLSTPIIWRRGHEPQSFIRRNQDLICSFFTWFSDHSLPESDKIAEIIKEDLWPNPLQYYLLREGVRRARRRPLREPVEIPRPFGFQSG
UniProt Q9NPA3, whole entry: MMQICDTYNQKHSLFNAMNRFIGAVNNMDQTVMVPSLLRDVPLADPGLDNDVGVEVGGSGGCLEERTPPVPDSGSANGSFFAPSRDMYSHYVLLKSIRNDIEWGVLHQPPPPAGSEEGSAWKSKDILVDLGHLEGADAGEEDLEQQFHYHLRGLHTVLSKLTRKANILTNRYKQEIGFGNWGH

Compound: Nc1ncnc2c1ncn2[C@@H]1O[C@H](COP(=O)(O)OP(=O)(O)NP(=O)(O)O)[C@@H](O)[C@H]1O [adenylyl imidodiphosphate]
Test: NP40-soluble protein abundance relative to vehicle (solubility fold change) (ratio); higher = more soluble protein in presence of AMP-PNP
Procedure, shortened: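 In three independent experiments, Jurkat crude lysate made by Dounce homogenisation was treated for 10 min at room temperature and then 3 min at 37 °C with eight concentrations ranging from 0.1 to 10 mM. It was then solubilised with 0.8% NP40 plus benzonase for 60 min at 4 °C and ultracentrifuged. The supernatant was TMT-labelled for LC-MS/MS, and each value is the fold change against the detergent-processed vehicle for the same replicate, using vsn-normalised intensities.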

Target	NP40-soluble protein abundance (concentration: 1mM)	NP40-soluble protein abundance (concentration: 2mM)	NP40-soluble protein abundance (concentration: 4mM)	NP40-soluble protein abundance (concentration: 6mM)	NP40-soluble protein abundance (concentration: 8mM)	NP40-soluble protein abundance (concentration: 10mM)
PPCS (UniProt Q9HAB8)	1.03 ± 0.033	0.981 ± 0.038	1.01 ± 0.028	1.03 ± 0.02	1.03 ± 0.026	1.04 ± 0.021
XAB2 (UniProt Q9HCS7)	1 ± 0.05	0.936 ± 0.13	1 ± 0.026	0.97 ± 0.011	1.03 ± 0.028	0.973 ± 0.066
UniProt Q9GZS1-2	1.01 ± 0.024	1.02 ± 0.031	1.07 ± 0.023	1.06 ± 0.036	1.07 ± 0.041	1.08 ± 0.034
UniProt Q9GZP4	1.01 ± 0.035	0.989 ± 0.073	0.991 ± 0.031	1.008 ± 0.0089	1.01 ± 0.027	0.993 ± 0.036
UniProt Q9H6A9 and related entries	1.01 ± 0.016	1.02 ± 0.027	0.98826 ± 0.00019	0.989 ± 0.028	0.9847 ± 0.0089	0.9795 ± 0.0059
UniProt Q9HCM4 and related entries	1.02 ± 0.055	1.01 ± 0.029	1.02 ± 0.056	1.01 ± 0.042	0.996 ± 0.07	0.974 ± 0.043
UniProt Q9C0D5 and related entries	0.9719 ± 0.0076	0.984 ± 0.075	0.956 ± 0.046	0.991 ± 0.035	0.937 ± 0.023	0.975 ± 0.026
VPS33B (UniProt Q9H267)	0.956 ± 0.028	0.895 ± 0.11	0.966 ± 0.011	0.935 ± 0.02	0.937 ± 0.0095	0.932 ± 0.019
PNN (UniProt Q9H307)	0.979 ± 0.13	0.981 ± 0.12	0.961 ± 0.15	0.969 ± 0.17	0.923 ± 0.15	1.03 ± 0.24
RACGAP1 (UniProt Q9H0H5)	1.018 ± 0.0086	1.07 ± 0.039	1.07 ± 0.013	1.087 ± 0.0077	1.07 ± 0.028	1.1 ± 0.044
UniProt Q9H9T3-2	1.003 ± 0.0041	0.956 ± 0.096	0.971 ± 0.035	0.931 ± 0.058	0.965 ± 0.062	0.933 ± 0.066
EXOSC4 (UniProt Q9NPD3)	1.02 ± 0.027	0.998 ± 0.031	1.03 ± 0.042	1.04 ± 0.039	1.09 ± 0.049	1.08 ± 0.06
UniProt Q9H5V9 and related entries	1.02 ± 0.016	1.04 ± 0.018	1.07 ± 0.028	1.07 ± 0.025	1.06 ± 0.042	1.1 ± 0.036
SEMA4C (UniProt Q9C0C4)	0.988 ± 0.016	0.998 ± 0.055	0.981 ± 0.013	0.988 ± 0.028	0.995 ± 0.023	0.9883 ± 0.0093
UniProt Q9GZQ3 and related entries	0.95419 ± 0.00078	0.9652 ± 0.0042	0.992 ± 0.041	1.01 ± 0.12	1.01 ± 0.04	0.979 ± 0.1
RABEP2 (UniProt Q9H5N1)	1.01 ± 0.042	1.06 ± 0.059	1.01 ± 0.077	0.973 ± 0.026	0.959 ± 0.016	0.956 ± 0.051
UniProt Q9H1Z4 and related entries	0.9915 ± 0.0073	0.987 ± 0.041	1.03 ± 0.028	0.981 ± 0.06	1.01 ± 0.03	1.01 ± 0.089
UniProt Q9H0F6 and related entries	1.06 ± 0.044	1.01 ± 0.031	1.01 ± 0.056	0.965 ± 0.046	0.994 ± 0.059	0.98 ± 0.027
UniProt Q9HCJ3 and related entries	1.01 ± 0.042	1.01 ± 0.029	0.974 ± 0.015	0.987 ± 0.017	0.974 ± 0.031	0.991 ± 0.058
OSGEP (UniProt Q9NPF4)	0.984 ± 0.019	0.916 ± 0.064	0.946 ± 0.032	0.9199 ± 0.0067	0.938 ± 0.012	0.917 ± 0.033

Target	NP40-soluble protein abundance (concentration: 1mM)	NP40-soluble protein abundance (concentration: 2mM)	NP40-soluble protein abundance (concentration: 4mM)	NP40-soluble protein abundance (concentration: 6mM)	NP40-soluble protein abundance (concentration: 8mM)	NP40-soluble protein abundance (concentration: 10mM)
CARS2 (UniProt Q9HA77)	0.956 ± 0.015	0.93 ± 0.054	0.977 ± 0.027	0.9436 ± 0.0065	0.955 ± 0.012	0.902 ± 0.011
UniProt Q9GZM8 and related entries	1.01 ± 0.016	1.018 ± 0.01	1 ± 0.013	1 ± 0.039	1.02 ± 0.042	1.02 ± 0.053
UniProt Q9H2G2-2	1.02 ± 0.0055	1.04 ± 0.039	1 ± 0.036	1.002 ± 0.01	0.961 ± 0.039	0.996 ± 0.06
POLR3F (UniProt Q9H1D9)	0.959 ± 0.035	0.97 ± 0.08	0.962 ± 0.042	1.04 ± 0.062	1.03 ± 0.077	1.02 ± 0.087
UniProt Q9BZL4-4|Q9BZL4	1 ± 0.033	1.04 ± 0.036	1.01 ± 0.047	0.997 ± 0.023	0.978 ± 0.017	0.999 ± 0.015
PELI2 (UniProt Q9HAT8)	1.01 ± 0.022	0.979 ± 0.065	1.02 ± 0.051	0.986 ± 0.04	1.01 ± 0.03	0.99 ± 0.019
UCK1 (UniProt Q9HA47)	0.981 ± 0.029	1.01 ± 0.028	1.01 ± 0.011	1.02 ± 0.026	0.9745 ± 0.0089	1.01 ± 0.01
ADNP (UniProt Q9H2P0)	1.03 ± 0.022	1.06 ± 0.011	1.08 ± 0.039	1.1 ± 0.062	1.13 ± 0.083	1.16 ± 0.072
RDH14 (UniProt Q9HBH5)	1.02 ± 0.036	0.99 ± 0.01	1.02 ± 0.071	1.03 ± 0.091	1.11 ± 0.085	1.06 ± 0.082
SLC38A10 (UniProt Q9HBR0)	0.993 ± 0.025	0.993 ± 0.025	0.981 ± 0.018	0.968 ± 0.061	0.976 ± 0.03	0.954 ± 0.045
TAF9B (UniProt Q9HBM6)	1.01 ± 0.012	1.06 ± 0.063	1.02 ± 0.05	0.979 ± 0.057	1.02 ± 0.065	1.07 ± 0.074
UniProt Q9H5X1	1 ± 0.019	0.989 ± 0.017	0.956 ± 0.022	0.97 ± 0.029	0.946 ± 0.016	0.959 ± 0.037
UniProt Q9H7Z3	1.01 ± 0.03	1.03 ± 0.035	1.05 ± 0.04	1.08 ± 0.04	1.07 ± 0.058	1.08 ± 0.054
UniProt Q9H0S4 and related entries	0.994 ± 0.061	0.981 ± 0.022	1.11 ± 0.089	1.25 ± 0.12	1.39 ± 0.13	1.46 ± 0.14
UniProt Q9H0X9 and related entries	0.989 ± 0.046	1.03 ± 0.024	0.982 ± 0.043	0.973 ± 0.051	0.947 ± 0.021	0.964 ± 0.032
UBE2T (UniProt Q9NPD8)	1 ± 0.035	0.997 ± 0.058	0.996 ± 0.057	0.992 ± 0.026	1.01 ± 0.066	0.976 ± 0.053
UniProt Q9H0W9 and related entries	0.99 ± 0.035	0.972 ± 0.036	0.973 ± 0.029	0.974 ± 0.012	0.949 ± 0.043	0.935 ± 0.037
UniProt Q9H668	0.991 ± 0.028	0.97 ± 0.028	0.985 ± 0.027	0.995 ± 0.018	0.985 ± 0.044	0.963 ± 0.024
PDCL3 (UniProt Q9H2J4)	0.94 ± 0.032	0.959 ± 0.019	0.939 ± 0.066	0.922 ± 0.038	0.925 ± 0.048	0.92 ± 0.066
JPH1 (UniProt Q9HDC5)	1 ± 0.028	1.02 ± 0.025	0.999 ± 0.036	1.02 ± 0.013	1.01 ± 0.024	1.03 ± 0.02

Single entries from above.
UniProt Q9H0X9 and related entries | NP40-soluble protein abundance (concentration: 4mM): 0.982 ± 0.043
UniProt Q9H2G2-2 | NP40-soluble protein abundance (concentration: 6mM): 1.002 ± 0.01

Additional entries

Target	NP40-soluble protein abundance (concentration: 1mM)	NP40-soluble protein abundance (concentration: 2mM)	NP40-soluble protein abundance (concentration: 4mM)	NP40-soluble protein abundance (concentration: 6mM)	NP40-soluble protein abundance (concentration: 8mM)	NP40-soluble protein abundance (concentration: 10mM)
UniProt Q9NPA0	0.954 ± 0.045	0.934 ± 0.027	0.986 ± 0.062	1.04 ± 0.065	1.07 ± 0.059	1.07 ± 0.032
DHX33 (UniProt Q9H6R0)	1.02 ± 0.023	1.06 ± 0.078	1.07 ± 0.082	1.12 ± 0.098	1.17 ± 0.12	1.18 ± 0.14
UniProt Q9H6U6 and related entries	1.01 ± 0.013	1.03 ± 0.01	1.02 ± 0.05	0.962 ± 0.021	0.955 ± 0.036	0.983 ± 0.01
UniProt Q9H7C9 and related entries	0.9902 ± 0.0036	1.04 ± 0.058	0.968 ± 0.027	0.998 ± 0.037	0.979 ± 0.037	0.979 ± 0.031
UniProt Q9GZT3 and related entries	0.976 ± 0.048	0.961 ± 0.026	0.931 ± 0.04	0.954 ± 0.055	0.963 ± 0.027	0.922 ± 0.039
UniProt Q9H4A5-2|Q5T5I6 and related entries	1.02 ± 0.024	1.04 ± 0.047	1.03 ± 0.035	1.03 ± 0.013	1.05 ± 0.035	1.01 ± 0.022
SCPEP1 (UniProt Q9HB40)	0.982 ± 0.03	1.02 ± 0.087	0.992 ± 0.038	0.97 ± 0.056	0.963 ± 0.045	0.963 ± 0.086
FN3KRP (UniProt Q9HA64)	1.02 ± 0.019	0.989 ± 0.06	1.03 ± 0.02	0.991 ± 0.044	0.985 ± 0.032	0.986 ± 0.031
DSN1 (UniProt Q9H410)	0.985 ± 0.033	1.01 ± 0.024	0.976 ± 0.029	0.965 ± 0.037	0.926 ± 0.015	0.942 ± 0.021
UniProt Q9GZT8 and related entries	0.959 ± 0.022	0.923 ± 0.051	0.958 ± 0.017	0.983 ± 0.034	0.992 ± 0.032	0.956 ± 0.033
UniProt Q9H3U1 and related entries	0.962 ± 0.011	0.9471 ± 0.0041	0.963 ± 0.017	0.927 ± 0.015	0.936 ± 0.02	0.915 ± 0.0094
UniProt Q9BZV1 and related entries	0.984 ± 0.015	0.986 ± 0.053	0.959 ± 0.021	0.9441 ± 0.0079	0.954 ± 0.018	0.963 ± 0.02
CCDC86 (UniProt Q9H6F5)	1.12 ± 0.025	1.17 ± 0.096	1.2 ± 0.017	1.25 ± 0.05	1.31 ± 0.084	1.4 ± 0.13
UniProt Q9H1K0	0.992 ± 0.028	1.01 ± 0.02	1.01 ± 0.04	0.992 ± 0.021	0.972 ± 0.041	1.01 ± 0.051
TSPYL1 (UniProt Q9H0U9)	0.977 ± 0.025	0.9842 ± 0.0063	0.9646 ± 0.0081	0.9449 ± 0.001	0.94314 ± 0.00052	0.959 ± 0.056
UniProt Q9NPA3	1.01 ± 0.038	0.997 ± 0.035	1.01 ± 0.053	0.9782 ± 0.0094	0.975 ± 0.018	0.971 ± 0.042
L2HGDH (UniProt Q9H9P8)	1.008 ± 0.0097	0.943 ± 0.013	0.952 ± 0.014	0.968 ± 0.029	0.958 ± 0.013	0.933 ± 0.013
UniProt Q9HCN4 and related entries	1.01 ± 0.047	1.06 ± 0.099	1 ± 0.039	0.976 ± 0.033	0.956 ± 0.032	0.96 ± 0.014
KATNBL1 (UniProt Q9H079)	1 ± 0.034	1.01 ± 0.02	0.999 ± 0.039	0.985 ± 0.018	1 ± 0.02	0.992 ± 0.011
UniProt Q9HDC9	0.961 ± 0.021	0.928 ± 0.03	0.956 ± 0.014	0.954 ± 0.049	0.973 ± 0.036	0.946 ± 0.028
